Here are results for two substances from patent US20170007595A1, “NSD3 INHIBITORS FOR TREATMENT OF CANCERS” (THE BRIGHAM AND WOMEN'S HOSPITAL, INC., priority 2014, published 2017).

Sequences of proteins named here, by UniProt entry; tags and fusion partners are left off. A change or cut given only in a name is not applied to a line headed by its entry.
UniProt Q9BZ95: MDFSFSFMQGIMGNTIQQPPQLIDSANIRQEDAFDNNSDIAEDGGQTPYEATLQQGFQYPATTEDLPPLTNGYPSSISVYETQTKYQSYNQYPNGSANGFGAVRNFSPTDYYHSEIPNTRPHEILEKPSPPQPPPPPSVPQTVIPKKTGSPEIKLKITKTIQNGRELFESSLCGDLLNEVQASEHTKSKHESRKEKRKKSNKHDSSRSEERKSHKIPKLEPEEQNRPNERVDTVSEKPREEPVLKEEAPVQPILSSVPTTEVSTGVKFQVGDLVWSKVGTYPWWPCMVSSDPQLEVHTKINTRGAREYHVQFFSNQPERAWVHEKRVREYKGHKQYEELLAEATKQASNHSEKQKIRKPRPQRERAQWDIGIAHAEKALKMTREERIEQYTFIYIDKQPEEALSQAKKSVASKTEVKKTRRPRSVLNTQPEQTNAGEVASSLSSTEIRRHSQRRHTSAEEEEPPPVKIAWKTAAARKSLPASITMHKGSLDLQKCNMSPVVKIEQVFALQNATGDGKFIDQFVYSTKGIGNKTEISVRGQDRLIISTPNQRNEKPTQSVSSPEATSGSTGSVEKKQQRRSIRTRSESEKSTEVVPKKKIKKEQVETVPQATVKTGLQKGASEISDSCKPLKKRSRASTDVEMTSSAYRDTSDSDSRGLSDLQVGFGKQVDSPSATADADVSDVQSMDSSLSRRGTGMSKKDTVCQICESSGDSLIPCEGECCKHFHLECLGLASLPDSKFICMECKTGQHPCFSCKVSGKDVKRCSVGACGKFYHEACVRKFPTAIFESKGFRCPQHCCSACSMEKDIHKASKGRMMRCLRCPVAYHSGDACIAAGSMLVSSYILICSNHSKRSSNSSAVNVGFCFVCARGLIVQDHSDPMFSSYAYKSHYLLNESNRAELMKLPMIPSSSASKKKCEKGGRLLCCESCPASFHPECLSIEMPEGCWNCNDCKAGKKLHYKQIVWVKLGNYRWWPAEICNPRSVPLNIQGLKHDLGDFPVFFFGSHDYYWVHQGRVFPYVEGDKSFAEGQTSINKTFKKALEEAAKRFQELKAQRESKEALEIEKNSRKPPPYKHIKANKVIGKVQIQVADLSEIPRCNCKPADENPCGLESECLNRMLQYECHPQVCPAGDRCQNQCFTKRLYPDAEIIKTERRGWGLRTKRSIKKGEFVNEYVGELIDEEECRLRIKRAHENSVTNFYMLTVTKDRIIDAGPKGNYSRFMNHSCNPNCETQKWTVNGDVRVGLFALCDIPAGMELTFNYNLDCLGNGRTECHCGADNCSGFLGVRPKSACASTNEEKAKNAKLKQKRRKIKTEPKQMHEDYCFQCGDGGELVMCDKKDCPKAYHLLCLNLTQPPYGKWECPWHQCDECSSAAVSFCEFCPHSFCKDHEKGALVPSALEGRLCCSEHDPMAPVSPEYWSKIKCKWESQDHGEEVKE

These are yes or no findings as the source states them, for the method shown. For part of these data: In cells and extracts the contact can be indirect. Some binding calls cover weakened binding; strength is not graded here.

In test [1] the target is HA-tagged BRD4-NUT (human). Put plainly: summary of the co-immunoprecipitation results.
Test [2] addresses BRD4-NUT (endogenous, 797TRex / TC-797 cells) (human). Put plainly: figure legend: immunofluorescence co-localisation (FIG. 4A).
Test [3] has the same target. Put plainly: immunofluorescence microscopy of 797TRex cells, anti-HA and anti-NUT.

Take “NSD3 (endogenous, wild type) (from UniProt Q9BZ95 1-1437)”: in test [1], the binding result is on record as “binds”.
Take “HA-NSD3-tr (NSD3 portion of the NSD3-NUT fusion protein) (from UniProt Q9BZ95 1-569)”: the binding result in test [2] and in test [3] was “binds” in each case.
